# Source: PubChem BioAssay AID2551 (National Center for Advancing Translational Sciences (NCATS), 2010)
# Chains of the proteins cited; added tags and fusions are not shown. Lines headed by an entry give the natural chain unless they say otherwise; changes in a name come on top.
# UniProt P51450: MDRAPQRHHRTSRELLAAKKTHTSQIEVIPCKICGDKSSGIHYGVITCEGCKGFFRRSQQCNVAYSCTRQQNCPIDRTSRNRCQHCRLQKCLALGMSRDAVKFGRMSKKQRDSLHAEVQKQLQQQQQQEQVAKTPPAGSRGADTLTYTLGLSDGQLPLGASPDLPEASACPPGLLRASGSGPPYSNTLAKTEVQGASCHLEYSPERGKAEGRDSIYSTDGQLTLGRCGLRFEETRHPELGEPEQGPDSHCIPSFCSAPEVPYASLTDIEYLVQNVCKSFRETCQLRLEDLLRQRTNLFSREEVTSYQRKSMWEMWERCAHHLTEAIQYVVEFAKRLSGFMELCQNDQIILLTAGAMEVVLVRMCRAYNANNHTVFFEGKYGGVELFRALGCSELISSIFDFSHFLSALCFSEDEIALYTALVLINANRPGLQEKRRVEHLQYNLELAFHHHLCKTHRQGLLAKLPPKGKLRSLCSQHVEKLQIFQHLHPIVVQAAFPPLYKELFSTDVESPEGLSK
# Out of some 310,000 compounds screened, about 17,000 (5.5%) were called active. Inconclusive means that the source gave no clear call. Such entries were picked first, then a sample of the others. The call rests on the fitted dose curve; in most records, active means well fitted inhibition curve with a large enough effect; inconclusive means small, poorly fitted or top-dose-only effect, or effect the other way; inactive means no such curve, though single readings can be large or run the other way. Potencies of inconclusive entries are doubtful fits and often do not repeat.
# Target: Nuclear receptor ROR-gamma (Mus musculus) (UniProt P51450)
# Test: qHTS for inhibitors of ROR gamma transcriptional activity; further: nearly all actives have a fitted effect of over 60% in size
# Conditions: Drosophila S2 Gal4-RORgamma UAS-luciferase reporter, 20 h; series mostly up to 53.6 µM
# How it was run: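 Stably transfected Drosophila Schneider cells are the test system, with ROR gamma fused to Gal4 and luciferase under UAS control; luminescence is read after 20 hr of 700 uM copper sulfate induction at ambient temperature.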
# Potency means the concentration at half of the fitted maximal effect.
row,Structure (SMILES),Potency
1,Clc1ccc(C(Cn2ccnc2)OCc2ccsc2Cl)c(Cl)c1 (centres undefined),active: 12.6 µM
2,CCN1C(=O)c2ccccc2S(=O)c2ccc(C(=O)N3CCN(C(=O)c4ccco4)CC3)cc21 (centres undefined),inactive
3,CCOC(=O)c1ccc(NCn2c(=O)oc3ccccc32)cc1,"inconclusive: 11.2 µM [activator, partial curve]"
4,Cc1ccc(-c2nnn(CCC(=O)N3CCCCC3C)n2)cc1 (centres undefined),"inconclusive: 11.2 µM [activator, partial curve]"
5,CCc1cc2c(=O)c(-c3nc4ccccc4n3C)coc2c(CN2CCOCC2)c1O,"inconclusive: 35.5 µM [activator, single point]"
6,COC(=O)C1=C(C)N(c2ccc(OC)c(OC)c2)C(=O)/C1=C\c1ccco1,"inconclusive: 10 µM [inhibitor, partial curve]"
7,CCc1c(C)c2ccc(OCC(=O)OC)cc2oc1=O,"inconclusive: 35.5 µM [inhibitor, single point]"
8,O=C1CCCN1CCCNS(=O)(=O)c1ccc(F)c(F)c1,inactive
9,COc1ccc(C2CC(c3ccccc3)=NN2C(=O)COC(=O)c2cnc(Cl)c(Cl)c2)cc1 (centres undefined),inactive
10,CC(C)C[C@H](N)c1nnc(S(=O)(=O)Cc2cccc(F)c2)o1,active: 6.31 µM
11,CCc1nnc(NC(=O)CSc2ncc(-c3ccccc3)n2C)s1,active: 11.2 µM
12,COc1cccc(NC(=O)Nc2nc(-c3ccc(OC)c(OC)c3)cs2)c1,"inconclusive: 6.31 µM [activator, partial curve]"
13,O=C(NC(=S)Nc1cccc(Cl)c1N1CCCCC1)c1cccs1,active: 0.708 µM
14,O=C(/C=C/c1ccc2c(c1)OCO2)NCC1CCCO1 (centres undefined),inactive
15,O=C(CSC(=S)N1CCCC1)c1ccccc1,active: 10 µM
16,O=C(N/N=C/c1ccco1)c1ccncc1,"inconclusive: 35.5 µM [inhibitor, single point]"
17,COc1ccccc1NC(c1cccnc1)c1ccc2cccnc2c1O (centres undefined),active: 11.2 µM
18,CN1C2=CC=CC=CC2=[N+](C)C12C=CC(=[N+]([O-])[O-])C=C2[N+](=O)[O-] (centres undefined),"inconclusive: 11.2 µM [inhibitor, single point]"
19,CCOC(=O)N1CCN(c2nc3ccc(C(=O)c4ccccc4)cc3n3cnnc23)CC1,inactive
20,Cc1nc2c3ccccc3n(Cc3ccccc3F)c2s1,inactive
21,O=C(Cc1ccc(Cl)cc1)NC(=S)Nc1ccccc1N1CCOCC1,active: 5.01 µM
22,Cc1cc(C)n(-c2ccc(C(=O)NC3CCCCC3)cc2)n1,"inconclusive: 3.98 µM [activator, partial curve]"
23,CCOC(=O)C(C(=O)OCC)c1cc(Br)c2noc3c2c1C(=O)c1ccccc1-3,"inconclusive: 6.31 µM [inhibitor, single point]"
24,COc1cc(NC(=O)c2ccc(Br)cc2)c(OC)cc1NC(=O)c1ccccc1,"inconclusive: 0.501 µM [inhibitor, full curve]"
25,CCOC(=O)c1cnc2c(F)ccc(F)c2c1Sc1ccccc1,"inconclusive: 35.5 µM [inhibitor, single point]"

row,Structure (SMILES),Potency
1,O=C(CCCSc1ccccc1)Nc1nc(-c2ccccn2)cs1,active: 10 µM
2,COc1ccc(/C=C2/SC(=S)N(CCCC(=O)Nc3ccc(O)cc3)C2=O)cc1,active: 0.282 µM
3,CCOC(=O)N/N=C/c1ccccc1OCc1ccc(Cl)cc1,"inconclusive: 35.5 µM [activator, single point]"
4,O=C(CCn1c(=O)[nH]c2ccccc2c1=O)N1CCN(c2cccc(C(F)(F)F)c2)CC1,"inconclusive: 20 µM [activator, single point]"
5,O=C1/C(=C/c2cccs2)COc2ccccc21,"inconclusive: 35.5 µM [inhibitor, single point]"
6,CCn1cc(C(=O)N2CCc3ccccc32)c(=O)c2cc(S(=O)(=O)N3CC(C)CC(C)C3)ccc21 (centres undefined),inactive
7,OCCN(CCO)CC(O)COc1ccc(C23CC4CC(CC(C4)C2)C3)cc1 (centres undefined),"inconclusive: 31.6 µM [inhibitor, single point]"
8,CCCCCCCNC1=CC(=O)CC(c2ccco2)C1 (centres undefined),"inconclusive: 14.1 µM [activator, partial curve]"
9,COc1cc2c(cc1OC)CN(C(=S)NC(=O)c1ccccc1)CC2,active: 5.62 µM
10,CCOC(=O)c1ccc(N2C(=O)Cc3ccccc3C2=O)cc1,inactive
11,COc1ccc(/C=C/C(=O)c2cccs2)c(OC)c1,active: 12.6 µM
12,CCCn1c(-c2ccc(F)cc2)cnc1SCC(=O)O,"inconclusive: 3.98 µM [activator, single point]"
13,COC(=O)CN=Cc1c(O)n(-c2ccc(Cl)cn2)c(=O)c2ccccc12,"inconclusive: 35.5 µM [inhibitor, single point]"
14,Cc1ccc2nc(NC(=O)c3ccc(OCC4CCCO4)cc3)sc2c1 (centres undefined),active: 4.47 µM
15,COc1ccc(OC)c(-n2c(-c3ccc(C)cc3)n[nH]c2=S)c1,active: 3.98 µM
16,CCOc1ccccc1CSc1nc2ccccc2[nH]1,"inconclusive: 35.5 µM [inhibitor, single point]"
17,O=C(CC(C(=O)O)c1ccccc1)c1cccs1 (centres undefined),inactive
18,COC(=O)c1c(NC(=O)CC2SC(N)=NC2=O)sc2c1CCC(C(C)(C)C)C2 (centres undefined),"inconclusive: 15.8 µM [activator, single point]"
19,O=C(c1csnn1)N1CCC2(CC1)CN(C(c1ccccc1)c1ccccc1)C2,inactive
20,CCCN(Cc1ccccc1)C(=S)Nc1ccc(OC(F)F)cc1,"inconclusive: 20 µM [inhibitor, single point]"
21,COc1ccc(Cl)cc1NC(=O)Cn1nnc(C(=O)NCc2ccc3c(c2)OCO3)c1N,"inconclusive: 35.5 µM [inhibitor, single point]"
22,CCOC(=O)c1cccc(NC(=O)CSc2nnnn2CC)c1,"inconclusive: 35.5 µM [activator, single point]"
23,COc1ccc(S(=O)(=O)NNC(=S)NCCc2ccccc2)c(OC)c1,"inconclusive: 20 µM [inhibitor, single point]"
24,O=C(O)c1ccc2c(c1)C1C=CCC1C(c1ccncc1)N2 (centres undefined),inactive

# Some values from above.
# Under Potency, `O=C(O)c1ccc2c(c1)C1C=CCC1C(c1ccncc1)N2` (centres undefined) reads inactive
# Under Potency, `CCCN(Cc1ccccc1)C(=S)Nc1ccc(OC(F)F)cc1` reads inconclusive: 20 µM [inhibitor, single point]
